Data published in article PMC6030054.
These are yes or no findings as the source states them, for the method shown. Binding seen in cells or lysates may run through a third protein. Some binding calls cover weakened binding; strength is not graded here.

Protein sequences, listed by entry. Tags and fused reporters are not part of them. Residues count along the entry.
UniProt Q03142, residues 17-799: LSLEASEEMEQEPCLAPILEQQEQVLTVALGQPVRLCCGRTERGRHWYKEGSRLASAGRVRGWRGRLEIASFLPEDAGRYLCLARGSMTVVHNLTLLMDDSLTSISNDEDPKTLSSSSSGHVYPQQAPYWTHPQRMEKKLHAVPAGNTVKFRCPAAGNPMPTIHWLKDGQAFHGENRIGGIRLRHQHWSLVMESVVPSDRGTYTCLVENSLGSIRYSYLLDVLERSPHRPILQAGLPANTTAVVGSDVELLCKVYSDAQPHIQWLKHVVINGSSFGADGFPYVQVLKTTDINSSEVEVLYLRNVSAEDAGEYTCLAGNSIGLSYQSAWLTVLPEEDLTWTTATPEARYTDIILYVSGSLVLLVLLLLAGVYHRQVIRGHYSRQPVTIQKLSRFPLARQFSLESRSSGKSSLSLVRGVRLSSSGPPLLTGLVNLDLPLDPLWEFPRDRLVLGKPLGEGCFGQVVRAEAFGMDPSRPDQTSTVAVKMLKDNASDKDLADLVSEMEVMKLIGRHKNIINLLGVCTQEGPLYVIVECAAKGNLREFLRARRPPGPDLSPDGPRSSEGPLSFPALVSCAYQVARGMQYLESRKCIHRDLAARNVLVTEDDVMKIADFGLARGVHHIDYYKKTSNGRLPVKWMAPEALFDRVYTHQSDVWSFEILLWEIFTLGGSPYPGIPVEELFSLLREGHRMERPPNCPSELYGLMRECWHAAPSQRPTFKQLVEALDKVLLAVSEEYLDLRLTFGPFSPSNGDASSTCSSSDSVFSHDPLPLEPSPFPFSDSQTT

B1: FRS2, endogenous mouse (protein, UniProt Q8C180 1-508)
chain: MGSCCSCPDKDTVPDNHRNKFKVINVDDDGNELGSGVMELTDTELILYTRKRDSVKWHYLCLRRYGYDSNLFSFESGRRCQTGQGIFAFKCARAEELFNMLQEIMQNNSINVVEEPVVERSSHQTELEVPRTPRTPTTPGLGAQNLPNGYPRYPSFGDASSHPSSRHPSVGSARLPSVGEESTHPLLVAEEQVHTYVNTTGVQEERKNRASVHVPPEARVSNAESNTPKEEPSNPEDRDPQVLLKPEGVRFVLGPTPVQKQLMEKEKLEQLGKDPVSGSGAGNTEWDTGYDSDERRDVPPVNKLVYENINGLSIPSASGVRRGRLTSTSTSDTQNINNSAQRRPALLNYENLPSLPPVWEARKLSRDEDDNLGPKTPSLNGYHNNLDPMHNYVNTENVTVPASAHKIDYSKRRDCTPTVFNFDIRRPSLEHRQLNYIQVDLEGGSDSDNPQTPKTPTTPLPQTPTRRTELYAVIDIERTAAMSNLQKALPRDDGTSRKTRHNSTDLPM
B2: Farnesoid-X-Receptor (FXR), endogenous mouse (protein, UniProt Q60641 1-488)
chain: MVMQFQGLENPIQISLHHSHRLSGFVPEGMSVKPAKGMLTEHAAGPLGQNLDLESYSPYNNVPFPQVQPQISSSSYYSNLGFYPQQPEDWYSPGIYELRRMPAETGYQGETEVSEMPVTKKPRMAAASAGRIKGDELCVVCGDRASGYHYNALTCEGCKGFFRRSITKNAVYKCKNGGNCVMDMYMRRKCQECRLRKCKEMGMLAECMYTGLLTEIQCKSKRLRKNVKQHADQTANEDDSEGRDLRQVTSTTKFCREKTELTADQQTLLDYIMDSYNKQRMPQEITNKILKEEFSAEENFLILTEMATSHVQILVEFTKKLPGFQTLDHEDQIALLKGSAVEAMFLRSAEIFNKKLPAGHADLLEERIRKSGISDEYITPMFSFYKSVGELKMTQEEYALLTAIVILSPDRQYIKDREAVEKLQEPLLDVLQKLCKMYQPENPQHFACLLGRLTELRTFNHHHAEMLMSWRVNDHKFTPLLCEIWDVQ

Molecular target: FGF receptor 4 (FGFR4), endogenous mouse (mouse (endogenous in primary mouse hepatocytes)) (UniProt Q03142)
Experiment: co-IP; whole cell extracts of primary mouse hepatocytes treated with FGF19 (10 or 30 min or indicated times; some with siRNA for Src or ERK); immunoprecipitation with anti-FGFR4, anti-Src, anti-Shp2 or anti-FRS2; endogenous proteins detected by IB; CoIP buffer (50 mM Tris pH 8.0, 150 mM NaCl, 2 mM EDTA, 0.3% NP40, 10% glycerol)

Binder	binding
B1	binds
B2	no binding
